# Some of the results follow.
# Amino acid sequences for entries named in this document (tags omitted). A change or cut given only in a name is not applied to a line headed by its entry.
# UniProt Q9NZ72: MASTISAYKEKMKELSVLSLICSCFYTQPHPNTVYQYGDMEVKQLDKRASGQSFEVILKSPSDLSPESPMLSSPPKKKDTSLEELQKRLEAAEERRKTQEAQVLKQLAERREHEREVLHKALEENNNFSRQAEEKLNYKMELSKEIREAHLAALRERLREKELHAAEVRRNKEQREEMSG
# UniProt O75528: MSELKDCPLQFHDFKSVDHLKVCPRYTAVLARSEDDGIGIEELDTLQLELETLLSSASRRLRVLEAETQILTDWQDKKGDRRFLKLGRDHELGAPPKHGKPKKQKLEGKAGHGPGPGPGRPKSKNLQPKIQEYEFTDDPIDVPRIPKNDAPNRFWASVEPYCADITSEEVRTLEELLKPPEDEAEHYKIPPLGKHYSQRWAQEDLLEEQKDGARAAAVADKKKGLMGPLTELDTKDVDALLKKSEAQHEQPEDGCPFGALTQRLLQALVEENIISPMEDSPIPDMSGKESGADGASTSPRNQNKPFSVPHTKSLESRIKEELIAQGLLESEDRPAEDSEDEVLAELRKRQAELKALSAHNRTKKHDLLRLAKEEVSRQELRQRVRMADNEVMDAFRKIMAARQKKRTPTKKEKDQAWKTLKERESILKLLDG
# UniProt Q9NRH2: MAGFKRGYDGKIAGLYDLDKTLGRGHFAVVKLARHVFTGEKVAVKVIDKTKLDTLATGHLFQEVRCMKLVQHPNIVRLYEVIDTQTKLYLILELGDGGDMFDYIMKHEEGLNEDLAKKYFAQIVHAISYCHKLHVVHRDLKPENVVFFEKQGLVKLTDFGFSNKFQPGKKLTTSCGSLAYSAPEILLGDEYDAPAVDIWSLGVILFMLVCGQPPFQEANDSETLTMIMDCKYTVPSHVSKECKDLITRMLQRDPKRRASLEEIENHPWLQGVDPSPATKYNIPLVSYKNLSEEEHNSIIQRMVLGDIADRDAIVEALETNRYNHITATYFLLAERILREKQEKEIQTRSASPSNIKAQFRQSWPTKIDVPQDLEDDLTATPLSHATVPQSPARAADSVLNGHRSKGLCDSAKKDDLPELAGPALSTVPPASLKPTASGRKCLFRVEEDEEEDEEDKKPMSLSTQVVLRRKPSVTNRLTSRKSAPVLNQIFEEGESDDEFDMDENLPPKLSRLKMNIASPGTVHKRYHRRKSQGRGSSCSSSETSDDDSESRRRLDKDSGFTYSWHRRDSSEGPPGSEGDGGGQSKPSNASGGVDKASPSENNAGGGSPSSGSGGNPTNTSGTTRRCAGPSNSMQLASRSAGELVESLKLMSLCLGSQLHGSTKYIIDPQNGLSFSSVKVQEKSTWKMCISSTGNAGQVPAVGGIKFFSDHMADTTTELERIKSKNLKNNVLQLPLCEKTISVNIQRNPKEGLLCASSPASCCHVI
# UniProt Q9NRL3: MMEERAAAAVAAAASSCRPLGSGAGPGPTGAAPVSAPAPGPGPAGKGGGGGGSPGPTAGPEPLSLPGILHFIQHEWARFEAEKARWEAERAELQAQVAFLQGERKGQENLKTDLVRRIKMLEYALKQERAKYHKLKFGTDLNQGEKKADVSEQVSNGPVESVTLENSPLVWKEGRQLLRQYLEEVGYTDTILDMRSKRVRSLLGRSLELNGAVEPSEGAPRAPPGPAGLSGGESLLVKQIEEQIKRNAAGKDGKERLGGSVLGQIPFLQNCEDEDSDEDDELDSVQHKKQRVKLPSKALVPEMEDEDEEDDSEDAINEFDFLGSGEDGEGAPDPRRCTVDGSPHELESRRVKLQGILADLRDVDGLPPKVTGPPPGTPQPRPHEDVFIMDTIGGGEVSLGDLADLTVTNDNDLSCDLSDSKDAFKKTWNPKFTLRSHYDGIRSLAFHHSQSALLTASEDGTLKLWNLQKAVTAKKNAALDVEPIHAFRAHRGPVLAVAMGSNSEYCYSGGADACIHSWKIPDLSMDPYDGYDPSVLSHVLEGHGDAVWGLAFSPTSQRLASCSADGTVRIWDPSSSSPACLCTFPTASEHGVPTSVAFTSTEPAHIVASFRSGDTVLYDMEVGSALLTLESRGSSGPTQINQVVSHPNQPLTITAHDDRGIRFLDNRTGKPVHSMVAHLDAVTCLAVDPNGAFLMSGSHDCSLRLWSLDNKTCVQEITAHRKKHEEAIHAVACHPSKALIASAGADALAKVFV
# UniProt P61956, whole entry: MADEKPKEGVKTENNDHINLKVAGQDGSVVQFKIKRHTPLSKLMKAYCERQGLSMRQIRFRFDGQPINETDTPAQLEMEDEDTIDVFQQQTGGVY
# UniProt Q9UNE7: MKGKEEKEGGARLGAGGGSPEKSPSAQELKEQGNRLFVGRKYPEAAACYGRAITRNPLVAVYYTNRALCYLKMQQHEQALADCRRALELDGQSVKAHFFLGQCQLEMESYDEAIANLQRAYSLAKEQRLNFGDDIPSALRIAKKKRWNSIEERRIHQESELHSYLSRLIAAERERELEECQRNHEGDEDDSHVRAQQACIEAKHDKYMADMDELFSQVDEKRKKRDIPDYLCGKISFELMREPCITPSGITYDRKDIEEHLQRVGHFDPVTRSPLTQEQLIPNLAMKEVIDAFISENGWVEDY
# UniProt P10124: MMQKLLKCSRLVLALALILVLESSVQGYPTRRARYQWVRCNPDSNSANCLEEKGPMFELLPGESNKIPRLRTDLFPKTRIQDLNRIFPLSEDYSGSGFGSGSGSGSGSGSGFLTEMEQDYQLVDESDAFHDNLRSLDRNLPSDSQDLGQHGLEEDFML
# UniProt P18583: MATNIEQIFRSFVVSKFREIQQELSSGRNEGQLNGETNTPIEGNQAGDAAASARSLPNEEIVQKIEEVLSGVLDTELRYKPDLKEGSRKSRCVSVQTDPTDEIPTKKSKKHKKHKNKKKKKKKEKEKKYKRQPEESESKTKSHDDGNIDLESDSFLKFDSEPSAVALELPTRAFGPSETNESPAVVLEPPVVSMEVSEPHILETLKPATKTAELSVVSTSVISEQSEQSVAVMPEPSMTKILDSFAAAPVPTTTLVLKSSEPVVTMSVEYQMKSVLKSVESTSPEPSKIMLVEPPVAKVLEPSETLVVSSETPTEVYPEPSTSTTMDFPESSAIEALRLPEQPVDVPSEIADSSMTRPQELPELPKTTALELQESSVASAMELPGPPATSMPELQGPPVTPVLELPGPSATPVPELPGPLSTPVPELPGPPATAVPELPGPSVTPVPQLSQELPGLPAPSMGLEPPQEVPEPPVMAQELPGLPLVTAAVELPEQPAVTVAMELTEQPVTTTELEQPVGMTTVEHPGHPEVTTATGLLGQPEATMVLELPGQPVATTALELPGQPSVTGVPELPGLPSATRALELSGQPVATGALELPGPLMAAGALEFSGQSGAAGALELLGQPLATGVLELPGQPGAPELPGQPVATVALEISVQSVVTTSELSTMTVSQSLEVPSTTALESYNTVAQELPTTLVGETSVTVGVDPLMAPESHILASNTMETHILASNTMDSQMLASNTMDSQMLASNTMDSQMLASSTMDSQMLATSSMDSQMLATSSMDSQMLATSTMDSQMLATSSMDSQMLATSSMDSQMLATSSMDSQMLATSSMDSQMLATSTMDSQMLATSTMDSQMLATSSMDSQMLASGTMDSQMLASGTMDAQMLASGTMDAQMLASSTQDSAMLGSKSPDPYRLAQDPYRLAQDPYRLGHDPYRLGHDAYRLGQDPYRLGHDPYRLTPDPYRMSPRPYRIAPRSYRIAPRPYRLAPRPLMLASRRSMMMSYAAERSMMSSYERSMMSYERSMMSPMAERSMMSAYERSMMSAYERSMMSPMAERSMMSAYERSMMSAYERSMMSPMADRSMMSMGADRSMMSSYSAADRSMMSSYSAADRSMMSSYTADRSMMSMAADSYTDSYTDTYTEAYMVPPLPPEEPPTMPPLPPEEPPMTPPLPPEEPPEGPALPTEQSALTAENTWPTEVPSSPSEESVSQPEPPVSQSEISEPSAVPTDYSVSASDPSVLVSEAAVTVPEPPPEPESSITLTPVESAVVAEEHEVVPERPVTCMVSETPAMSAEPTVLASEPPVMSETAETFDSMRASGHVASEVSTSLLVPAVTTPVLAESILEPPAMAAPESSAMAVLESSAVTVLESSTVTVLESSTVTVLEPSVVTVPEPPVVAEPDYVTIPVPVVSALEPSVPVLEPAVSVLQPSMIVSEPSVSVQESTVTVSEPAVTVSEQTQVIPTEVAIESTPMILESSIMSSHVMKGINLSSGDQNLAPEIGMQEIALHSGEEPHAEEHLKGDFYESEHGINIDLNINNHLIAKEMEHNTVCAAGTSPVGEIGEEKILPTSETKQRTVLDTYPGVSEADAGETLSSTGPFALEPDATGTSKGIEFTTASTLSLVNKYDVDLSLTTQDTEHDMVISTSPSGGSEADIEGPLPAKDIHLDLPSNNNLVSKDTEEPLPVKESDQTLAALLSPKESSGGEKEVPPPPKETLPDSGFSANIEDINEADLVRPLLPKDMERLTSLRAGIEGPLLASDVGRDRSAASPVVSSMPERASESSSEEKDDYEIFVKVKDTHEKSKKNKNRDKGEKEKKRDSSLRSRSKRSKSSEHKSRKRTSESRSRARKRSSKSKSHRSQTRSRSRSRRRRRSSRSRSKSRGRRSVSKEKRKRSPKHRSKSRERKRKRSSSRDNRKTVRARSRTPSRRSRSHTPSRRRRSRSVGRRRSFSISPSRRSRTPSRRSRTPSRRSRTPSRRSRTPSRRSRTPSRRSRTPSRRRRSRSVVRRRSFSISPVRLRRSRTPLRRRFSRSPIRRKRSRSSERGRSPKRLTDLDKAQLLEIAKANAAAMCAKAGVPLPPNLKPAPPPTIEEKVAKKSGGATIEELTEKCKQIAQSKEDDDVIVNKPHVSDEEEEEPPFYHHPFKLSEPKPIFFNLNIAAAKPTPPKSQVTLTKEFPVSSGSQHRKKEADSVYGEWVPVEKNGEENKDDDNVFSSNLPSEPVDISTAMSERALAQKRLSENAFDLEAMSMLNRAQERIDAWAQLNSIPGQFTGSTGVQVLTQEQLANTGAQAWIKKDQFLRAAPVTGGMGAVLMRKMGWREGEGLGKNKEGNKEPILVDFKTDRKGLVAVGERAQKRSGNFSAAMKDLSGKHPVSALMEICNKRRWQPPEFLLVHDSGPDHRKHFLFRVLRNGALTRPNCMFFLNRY
# UniProt Q9Y5M8: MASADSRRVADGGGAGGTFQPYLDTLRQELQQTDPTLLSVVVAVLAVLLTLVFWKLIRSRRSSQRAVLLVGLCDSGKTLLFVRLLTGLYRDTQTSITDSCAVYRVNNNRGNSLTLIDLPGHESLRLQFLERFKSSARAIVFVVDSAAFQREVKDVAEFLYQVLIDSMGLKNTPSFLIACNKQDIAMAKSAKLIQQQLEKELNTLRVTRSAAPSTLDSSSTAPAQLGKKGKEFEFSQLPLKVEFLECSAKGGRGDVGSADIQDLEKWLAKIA
# UniProt Q658P3: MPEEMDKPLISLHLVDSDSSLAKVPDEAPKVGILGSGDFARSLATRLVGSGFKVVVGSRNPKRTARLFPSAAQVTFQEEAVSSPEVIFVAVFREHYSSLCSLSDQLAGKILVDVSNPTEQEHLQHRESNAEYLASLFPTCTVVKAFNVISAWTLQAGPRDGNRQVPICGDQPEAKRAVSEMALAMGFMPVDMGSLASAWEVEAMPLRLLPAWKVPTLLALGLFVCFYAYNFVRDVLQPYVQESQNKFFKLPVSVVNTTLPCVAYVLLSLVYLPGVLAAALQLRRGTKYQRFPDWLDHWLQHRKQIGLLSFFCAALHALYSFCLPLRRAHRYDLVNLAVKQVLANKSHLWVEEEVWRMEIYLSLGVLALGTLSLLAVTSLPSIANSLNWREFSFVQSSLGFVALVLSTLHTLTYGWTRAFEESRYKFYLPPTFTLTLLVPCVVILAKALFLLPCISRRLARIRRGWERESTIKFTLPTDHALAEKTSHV
# Compound: COc1ccc(Cn2ccc3ccc(C(=O)NO)cc32)cc1
# Test: dose-dependent thermal stabilisation call (2D-TPP, DLPTP, 10% FDR) (binary (1 = stabilised)); higher = stabilised by the compound
# Conditions: system: HL-60 intact cells; concentration range 0.04-10 µM
row,Target,dose-dependent thermal stabilisation call
1,STMN3 (UniProt Q9NZ72),inactive: 0
2,TADA3L (UniProt O75528),inactive: 0
3,SNRK (UniProt Q9NRH2),inactive: 0
4,STRN4 (UniProt Q9NRL3),inactive: 0
5,SUMO2 (UniProt P61956),inactive: 0
6,STUB1 (UniProt Q9UNE7),inactive: 0
7,SRGN (UniProt P10124),active: 1
8,SON (UniProt P18583),inactive: 0
9,SRPRB (UniProt Q9Y5M8),inactive: 0
10,STEAP3 (UniProt Q658P3),inactive: 0
